A short description of data set [1]: Candidate marker selection across the three proteomic studies (FIG. 8). The following applies: inventors' proteomic studies.
The nature of data set [2]: RRT study: LC-MS/MS urinary proteomics, AKI after cardiac surgery, RRT vs No RRT. On the set-up: species or system human.
The mark [3] stands for this setting: direction of differential abundance, patients who did vs did not require RRT/dialysis.
Setting [4] is: patients who did vs did not require RRT/dialysis.

With “Polymeric IgG receptor: urinary protein involved in the secretion of soluble IgA”, the “change of the protein in urine in AKI” value in data set [1] is recorded as “decrease”. Further, the “Up or Down” value in data set [2] (setting [3]) is “Down”. Moreover, the “Mean Fold Change” value in data set [2] (setting [4]) amounted to 1.113.

“Complement C3: urinary protein, Uniprot P01024”: in data set [1], the “change of the protein in urine in AKI” value is given as “increased”. Moreover, the “Mean Fold Change” value is reported as 5.68 in data set [2] (RRT vs No RRT, positive = elevated in RRT group) and 8.52 in data set [2] (patients who did vs did not require RRT/dialysis, read with the Up or Down column). Moreover, in data set [2] (direction of urinary abundance, patients who did vs did not require RRT/dialysis), the “Up or Down” value is recorded as “Up”. Moreover, the “Mean No RRT” value in data set [2] (urine, AKI patients who did not require RRT (n=6)) is 8.82 normalized spectral counts. Further, in data set [2] (urine, AKI patients who required RRT (n=6)), the “Mean RRT” value is reported as 50.09 normalized spectral counts.

Regarding “Uromodulin: urinary protein expressed in the thick ascending limb”, the “change of the protein in urine in AKI” value in data set [1] was “decrease”. Also, the “Up or Down” value in data set [2] (setting [3]) was “Down”. In data set [2] (setting [4]), the “Mean Fold Change” value is listed as 1.685.

For the origin of these results see US20140038203A1, “METHODS FOR DETECTING OR PREDICTING KIDNEY DISEASE” (MUSC FOUNDATION FOR RESEARCH DEVELOPMENT, priority 2012, published 2014).
